From PMC3364957
Results are given in words; binding and its absence hold for the method and conditions named. Binding seen in cells or lysates may run through a third protein. Some results given as binding are weak or reduced against the parent protein; the word gives no strength.

T1: GLD-1 (C. elegans (endogenous in worm lysate)) (UniProt Q17339)
T1 sequence: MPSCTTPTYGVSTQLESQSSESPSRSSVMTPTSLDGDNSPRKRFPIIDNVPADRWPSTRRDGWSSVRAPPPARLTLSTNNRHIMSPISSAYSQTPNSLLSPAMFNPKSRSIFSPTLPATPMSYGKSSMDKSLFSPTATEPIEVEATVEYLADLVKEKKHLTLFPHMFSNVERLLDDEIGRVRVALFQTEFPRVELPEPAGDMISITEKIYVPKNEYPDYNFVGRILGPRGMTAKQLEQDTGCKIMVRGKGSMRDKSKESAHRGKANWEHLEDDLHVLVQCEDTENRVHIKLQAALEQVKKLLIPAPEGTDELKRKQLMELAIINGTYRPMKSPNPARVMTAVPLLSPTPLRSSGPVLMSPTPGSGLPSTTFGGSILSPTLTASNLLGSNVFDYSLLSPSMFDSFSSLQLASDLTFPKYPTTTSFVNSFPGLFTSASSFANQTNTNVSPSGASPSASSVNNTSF


Target: T1, GLD-1 (C. elegans (endogenous in worm lysate))
Assay: co-IP; GLD-1 IPs from worm lysate, co-precipitated proteins detected by western blot

binding | Binder
binds | PAB-1 (protein, UniProt Q9U302 1-646) MEMNVAAPAAAVAGAAAPQPGQNQTGSSYTMASLYVGDLHPDVNESILFEKFSAAGPVLSIRVCRDNATRLSLGYAYVNFQQPADAERAMDTMNFEALHGKPMRIMWSQRDPAMRRSGAGNIFIKNLDKVIDNKSIYDTFSLFGNILSCKVAIDEDGFSKGYGFVHFETEEAAQNAIQKVNGMLLAGKKVFVGKFQPRAQRNRELGETAKQFTNVYVKNFGDHYNKETLEKLFAKFGNITSCEVMTVEGKSKGFGFVAFANPEEAETAVQALHDSTIEGTDLKLHVCRAQKKSERHAELKKKHEQHKAERMQKYQGVNLYVKNLDETVDDDGLKKQFESYGNITSAKVMTDENGRSKGFGFVCFEKPEEATSAVTEMNSKMVCSKPLYVAIAQRKEDRRAQLASQYMQRLASMRMHGNVPGAAMYNPTQPGPGYYVANPMQQQRNFAGGQQMVRPGGRWGMQNQYPVQNQYMMAQGPGVYQNRMGRPQNQQGGPRGPPQQYNQVAQGGVRMQGPPRTQNPGVQQQNVPRPPQQQQQQRPAPTGPKAPPQPYQAYQQRPQGIVIGGQEPLTSAMLAAAAPQEQKQLLGERIYALIEKLYPGHKDAGKITGMMLEIDNSELIMMLQDSELFRSKVDEAASVLVSAQKQ
binds | CAR-1 (protein, UniProt Q9XW17 1-340) MSNQTPYIGSKISLISKLDIRYEGILYTVDTNDSTIALAKVRSFGTEKRPTANPVAARDDVYEYIIFKASDIKDLIVCDTPKMANIGGGLPYDPAIISVSSRSAPASDGAPAASAGSSRAGTPSRNSPLGQIIQNQRPGRGGYQQNFQANRGYNNYRGGFAGGYNNQRGHNNYGVPRVNHREKLKFESDFDFEKANEKFQEVLVDNLEKLNIEDKAEPEVEEKKDAAFYDKKTSFFDNISCESLEKAEGKTGRPDWKKERETNQETFGHNAVRSLNYRRGFGGRGRGGNRGYGGYNNGYQHQHQHRGGYNGGYRQNNGGYRRGGYAPRDNQGNTAAAAEQ
